Measured values published in patent US8148392B2, “2-indolyl imidazo [4,5-d] phenanthroline derivatives and their use in the treatment of cancer” (Lorus Therapeutics Inc., priority 2005, dated 2012).

Tested on: HT-29 colon carcinoma cells
Assay: Sub-cellular localization by fluorescent microscopy, HT-29
Format: cell-based, human

SMILES: Cc1[nH]c2ccccc2c1-c1nc2c3cccnc3c3ncccc3c2[nH]1 [Compound 3]
- time to enter the cell (HT-29, 10 or 25 μM): ≤ 5 min
- sub-cellular localization (HT-29, 5 minutes of treatment): evenly distributed throughout the nucleus and cytoplasm
- sub-cellular localization (HT-29, 4 hours of treatment): localized predominantly around the outside of the nucleus (perinuclear region)
